Measurements reported in PubChem BioAssay AID1159578 (Peter MacCallum Cancer Centre, 2015)

- Aim: 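siRNA pools altering how lymphatic endothelial cells close a scratch wound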 (primary screen)
- System: human lymphatic endothelial cells
- Reagents: siRNA pool against human genes, 40 nM
- Time to read-out: 48 h after transfection
- Measured: 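Cells stained with dye and imaged after a scratch; covered wound area and nuclei counted, duplicates averaged, migration set against mock wells and turned into a robust z-score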
- Reading the numbers: migration robust z-score: higher = faster migration into the scratch; nuclei per well: higher = more cells in the well
- Hit rule: 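Pools averaging fewer than 3300 nuclei are never called; remaining pools count as changed when migration robust z lies outside -2 to 2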
- Meaning of the calls: active = migration changed; inactive = no migration change, or too few cells
Here is a random part of about 18,000 reagents. In the full data, about 1,030 (5.7%) got an active call. 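Inactive calls also include pools with fewer than 3300 nuclei, whose migration was not assessed.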 Raw values vary from plate to plate and are shown uncorrected. Reagents against one gene are numbered here. Not all columns of the deposit are shown.

TXNRD3 (thioredoxin reductase 3) #1 → migration robust z-score = -0.5; migration class with cell-count check = migration z between -2 and 2; enough cells; nuclei per well, duplicate mean = 6494; outcome = inactive
TXNRD3 (thioredoxin reductase 3) #2 → migration robust z-score = 0.64; migration class with cell-count check = migration z between -2 and 2; enough cells; nuclei per well, duplicate mean = 5414; outcome = inactive
TBX22 (T-box transcription factor 22) → migration robust z-score = -0.26; migration class with cell-count check = migration z between -2 and 2; enough cells; nuclei per well, duplicate mean = 6074; outcome = inactive
STAT1 (signal transducer and activator of transcription 1) → migration robust z-score = 0.21; migration class with cell-count check = migration z between -2 and 2; enough cells; nuclei per well, duplicate mean = 4918; outcome = inactive
IFT38 (intraflagellar transport 38) → migration robust z-score = 1.1; migration class with cell-count check = migration z between -2 and 2; enough cells; nuclei per well, duplicate mean = 5365; outcome = inactive
SGCA (sarcoglycan alpha) → migration robust z-score = -1.53; migration class with cell-count check = migration z between -2 and 2; enough cells; nuclei per well, duplicate mean = 5550; outcome = inactive
L1TD1 (LINE1 type transposase domain containing 1) → migration robust z-score = 1.07; migration class with cell-count check = migration z between -2 and 2; enough cells; nuclei per well, duplicate mean = 4700; outcome = inactive
FBXL7 (F-box and leucine rich repeat protein 7) → migration robust z-score = -0.28; migration class with cell-count check = migration z between -2 and 2; enough cells; nuclei per well, duplicate mean = 5646; outcome = inactive
AGTRAP (angiotensin II receptor associated protein) → migration robust z-score = 0.15; migration class with cell-count check = migration z between -2 and 2; enough cells; nuclei per well, duplicate mean = 5394; outcome = inactive
SNX12 (sorting nexin 12) → migration robust z-score = -0.52; migration class with cell-count check = migration z between -2 and 2; enough cells; nuclei per well, duplicate mean = 5192; outcome = inactive
SEPTIN11 (septin 11) → migration robust z-score = -0.68; migration class with cell-count check = migration z between -2 and 2; enough cells; nuclei per well, duplicate mean = 5889; outcome = inactive
C1QTNF2 (C1q and TNF related 2) → migration robust z-score = 0.64; migration class with cell-count check = migration z between -2 and 2; enough cells; nuclei per well, duplicate mean = 5338; outcome = inactive

Just “migration robust z-score”, for 2 of the entries above:
STAT1 (signal transducer and activator of transcription 1): 0.21
IFT38 (intraflagellar transport 38): 1.1
